In PubChem BioAssay AID662 (National Center for Advancing Translational Sciences (NCATS), 2007):
The other results are listed elsewhere or left out. Shown are side measurements of this screen, not its main read-out; they come without a call. Most of these compounds were active or inconclusive in the main read-out, so they are no random draw. Words in brackets tell the shape of the fitted curve; partial curves, single points and poor fits give uncertain potencies.

Assay: Cell signaling CRE-BLA (Fsk stim)
Conditions: CHO CRE-bla reporter (cAMP response element driving beta-lactamase), forskolin EC10, beta-lactamase ratio; measured here: 460 nm blue channel
Method in brief: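 Modulation of forskolin signalling: compounds in titration series added with EC10 NKH 477 to CHO cells carrying a CRE-driven beta-lactamase reporter, 3 h, 37C. CCF4 FRET ratio (460/530 nm, ex 405 nm) gives %activity and AC50.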
For Cc1ccc(C2Nc3ccccc3-c3nc4ccccc4n32)o1 (centres undefined), the AC50 was 20 µM [rising, single point]. In the case of CCC(C)Sc1nc(O)cc(=O)[nH]1 (centres undefined), the AC50 is reported as 0.00316 µM [falling, full curve, poor fit]. For CCN1CCN(CC(=O)Nc2c(C(=O)OC)[nH]c3cccc(Cl)c23)CC1, the AC50 was 3.16 µM [falling, full curve, poor fit]. In the case of O=C(O)C1CC(=O)N(c2ccc(F)c(F)c2)C1 (centres undefined), the AC50 is reported as 0.00398 µM [falling, full curve, poor fit]. For CCN=C1SC(CC(=O)Nc2sc(C)c(C)c2C(=O)OC)C(=O)N1CC (centres undefined), the AC50 was 2.51 µM [rising, partial curve]. With Cc1cc(O)c2c(c1)C(=O)c1cc(O)cc(O)c1C2=O the AC50 was 1.26 µM [rising, full curve, poor fit]. In the case of COC(=O)C1CCN(c2cc(=O)n(C3CCCCC3)c(=O)[nH]2)CC1, the AC50 is reported as 0.251 µM [rising, partial curve]. In the case of Cc1cc(C)n(-c2ccc(C(=O)OCC(=O)Nc3ccc(S(=O)(=O)N4CCOCC4)cc3)cc2)n1, the AC50 is reported as 20 µM [falling, single point]. In the case of CCCCn1c(=O)c2c(c3ccccc31)OCC(=O)N2, the AC50 is reported as 1.26 µM [rising, partial curve]. For CCOC(=O)CCCSc1nc2sc(C)c(C)c2c(=O)[nH]1, the AC50 was 10 µM [rising, partial curve]. For Cc1ccc(SCc2nc(-c3cccnc3)no2)cc1, the AC50 was 12.6 µM [rising, partial curve]. In the case of Cc1cc(NC(=O)CSc2nc(-c3ccco3)cc(C(F)(F)F)n2)n(-c2ccccc2)n1, the AC50 is reported as 7.94 µM [rising, partial curve]. In the case of COc1ccc(CCC(=O)Nc2ccc(-c3noc(-c4ccc(OC)c(OC)c4)n3)cc2)cc1, the AC50 is reported as 7.94 µM [falling, partial curve]. With N#Cc1cc2ccccc2nc1SCc1ccccn1 the AC50 was 12.6 µM [rising, single point]. For CCOC(=O)c1sc(=S)n(CC)c1N, the AC50 was 12.6 µM [rising, partial curve]. With O=C(CN1CCC2(CC1)OCCO2)c1ccc2cc[nH]c2c1 the AC50 was 1.26 µM [rising, full curve, poor fit]. With C=CCn1c(SCc2c(C)noc2C)nc2sc3c(c2c1=O)CCCCC3 the AC50 was 2.51 µM [rising, full curve]. With CCc1cc2c(NCCN3CCCCC3)ncnc2s1 the AC50 was 0.126 µM [falling, single point]. With CCOC(=O)N1CCN(c2nc(C)cc(C(F)(F)F)n2)CC1 the AC50 was 0.0794 µM [falling, full curve]. For Cn1c(=O)c(-c2ccccc2)nc2cnc(Nc3ccccc3)nc21, the AC50 was 5.01 µM [rising, partial curve]. With CC(=O)Oc1ccc(C(=O)Nc2nccs2)cc1 the AC50 was 31.6 µM [falling, single point]. With C=CC1=C(C)C2=NC1=CC1=NC(=CC3=NC(=CC4=NC(=C2)C(C)=C4CCC(=O)O)C(CCC(=O)O)=C3C)C(C=C)=C1C.[Zn] the AC50 was 25.1 µM [falling, partial curve]. With Nn1c(SC/C=C/c2ccccc2)nnc1-c1ccncc1 the AC50 was 1 µM [rising, single point]. For CC(=O)c1cc2c(cc1NC(=O)CCCC(=O)O)OCO2, the AC50 was 0.0316 µM [falling, full curve, poor fit]. For CN(C)C(=O)c1ccc(-c2ccc3ncnc(N(C)C)c3c2)cc1, the AC50 was 12.6 µM [rising, partial curve]. For Cc1cccc(NS(=O)(=O)c2ccccc2)n1, the AC50 was 3.16 µM [rising, partial curve]. With CCOC(=O)c1c(CN2CCCCC2)n(C)c2cc(Br)c(OC)cc12 the AC50 was 10 µM [rising, partial curve]. In the case of O=C(O)c1oc2ccc(Br)cc2c1-n1cccc1, the AC50 is reported as 3.16 µM [falling, full curve, poor fit]. With CCOC(=O)N1CCN(C(=O)c2cc(-c3ccc(OCC)cc3)nc3ccccc23)CC1 the AC50 was 12.6 µM [rising, single point]. In the case of Nc1ccc2oc(-c3cccc4ccccc34)nc2c1, the AC50 is reported as 10 µM [rising, single point]. With CC(C)(C)c1ccc(-c2nc(C#N)c(NCc3ccncc3)o2)cc1 the AC50 was 12.6 µM [rising, partial curve]. In the case of COc1ccc(Oc2ncc3nc(-c4ccc(F)cc4)c(=O)n(Cc4cccs4)c3n2)cc1, the AC50 is reported as 15.8 µM [rising, partial curve]. In the case of COc1cc(C(=O)N2CCN=C2c2ccccc2)cc(OC)c1OC, the AC50 is reported as 12.6 µM [rising, single point]. With O=C1C(SCCO)=C(SCCO)C(=O)c2ccccc21 the AC50 was 5.01 µM [falling, full curve]. For O=C(CN(c1ccccc1F)S(=O)(=O)c1ccccc1)N1CCCCCC1, the AC50 was 0.0126 µM [rising, full curve]. In the case of N#Cc1nc(COc2ccccc2)oc1N1CCN(Cc2ccccc2)CC1, the AC50 is reported as 1 µM [rising, full curve]. With COc1ccc(Nc2nc3c(c(=O)n(C)c(=O)n3C)n2CCO)cc1 the AC50 was 10 µM [rising, single point]. For Cc1nn2c(-c3ccco3)nnc2c2ccccc12, the AC50 was 12.6 µM [rising, partial curve]. In the case of CC(=O)Nc1nc2c(c3c1c(=O)oc1ccccc13)CC(C)CC2 (centres undefined), the AC50 is reported as 12.6 µM [rising, single point]. For COc1cc2c(cc1OC)-c1cc(N3CCCCCC3)nc(=O)n1CC2, the AC50 was 0.158 µM [rising, full curve]. With Cn1c(=O)[nH]c(=O)c2c1nc(SCCN1CCOCC1)n2Cc1ccccc1 the AC50 was 15.8 µM [rising, single point]. For CCOc1ccc2nc(NCCNC(=O)Nc3cccc(C)c3)c(C#N)cc2c1, the AC50 was 12.6 µM [rising, partial curve]. With C=CCOC(=O)c1[nH]c2c(c1C)C(=O)CC(c1ccco1)C2 (centres undefined) the AC50 was 1 µM [rising, full curve]. For C/C(=N\S(=O)(=O)c1ccc(C)cc1)N1CCN(S(=O)(=O)c2ccccc2)C1, the AC50 was 0.00398 µM [falling, full curve, poor fit].
